Reference: publication doi:10.1101/2020.01.08.898304 (bioRxiv, 2020)

By UniProt entry, the sequences of proteins in these tests, tags left out. Where a name states a change or a piece, a line headed by the entry shows the natural chain unless it says otherwise.
UniProt Q9EPI6: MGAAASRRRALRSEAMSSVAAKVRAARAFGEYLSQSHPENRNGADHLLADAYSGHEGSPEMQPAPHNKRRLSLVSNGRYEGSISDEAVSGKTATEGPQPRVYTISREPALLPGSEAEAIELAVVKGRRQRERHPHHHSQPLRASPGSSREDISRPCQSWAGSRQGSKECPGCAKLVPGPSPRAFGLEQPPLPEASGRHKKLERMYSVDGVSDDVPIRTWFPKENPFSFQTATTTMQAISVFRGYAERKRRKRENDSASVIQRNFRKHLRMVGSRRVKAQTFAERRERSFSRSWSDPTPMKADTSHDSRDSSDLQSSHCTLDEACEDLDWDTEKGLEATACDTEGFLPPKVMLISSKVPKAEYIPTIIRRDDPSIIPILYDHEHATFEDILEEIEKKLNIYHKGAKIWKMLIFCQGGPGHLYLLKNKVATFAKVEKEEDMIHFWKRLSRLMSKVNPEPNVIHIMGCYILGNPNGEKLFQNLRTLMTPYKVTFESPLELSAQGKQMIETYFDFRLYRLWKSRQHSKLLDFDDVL

Target: ΔMyr-Jacob-L175A-V176A-GFP (UniProt Q9EPI6)
Assay: co-IP

B1: GST-LMO4 (natural protein, UniProt P61968 1-165, looked up)
chain: MVNPGSSSQPPPVTAGSLSWKRCAGCGGKIADRFLLYAMDSYWHSRCLKCSCCQAQLGDIGTSCYTKSGMILCRNDYIRLFGNSGACSACGQSIPASELVMRAQGNVYHLKCFTCSTCRNRLVPGDRFHYINGSLFCEHDRPTALINGHLNSLQSNPLLPDQKVC
For B1, the binding was “binds weakly”.

No constants are given. Whether binding was seen depends on the method and setting. In cells and extracts the contact can be indirect. Binding can be weak; no strength is given. Where a sequence is shown, tags or fusion partners need not be part of it.
